Laboratory results published in US10772928B2, “Modulation and detection of a neuronal alternative splicing regulatory network for treatment and diagnosis of neurological disorders” (The Governing Council of the University of Toronto, priority 2014, dated 2020).
What was measured is the transcript of the gene that encodes the chain shown.

System: microexons
Test: Neural-regulated microexons by RNA-Seq pipeline across mouse cell and tissue types
Settings: mouse neural-regulated microexon (mm9); NEURAL-UP or NEURAL-DOWN

B1: Fip1l1 (protein, UniProt Q9D824 1-581, looked up)
Pre-mRNA 3'-end-processing …: MSAGEVERLVELSGGTGGDEEEEWLYGGPWDVHVHSDLAKDLDENEVERPEEENASANPPSGIEEEAAENGVAKPKVTETEDDSDSDSDDDEDDVHVTIGDIKTGAPQYGSYGTAPVNLNIKAGGRVYGNTGTKVKGVDLDAPGSINGVPLLEVDLDSFEDKPWRKPGADLSDYFNYGFNEDTWKAYCEKQKRIRMGLEVIPVTSTTNKITVQQGRTGNSEKEAALPSTKAEFTSPPSLFKTGLPPSRNSTSSQSQTSTASRKASSSVGKWQDRYGRAESPDLRRLPGAIDVIGQTITISRVEGRRRANENSNIQVLSDRSATEVDNNFSKPPPFFPPGAPPTHLPPPPFLPPPPTVSTAPPLIPPPGIPITVPPPGFPPPPGAPPPSLIPTIESGHSSGYDSRSARAFPYGNVAFPHLTSSAPSWPSLVDTTKQWDYYARREKDRDRDRERDRDRERERDRDRERERTRERERERDHSPTPSVFNSDEERYRYREYAERGYERHRASREKEERHRERRHREKEETRHKSSRSNSRRRHESEEGDSHRRHKHKKSKRSKEGKEAGSEPVPEQESTEAAPAE
Q: Which “Regulation in Brain” value does the source give for B1 here?
A: NEURAL-UP
